# Results from one PubChem assay

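Cellular ATP, measured by a luciferase luminescence readout, serves as a viability signal in HCT116 cells treated for 16 h. Each compound was run as a concentration series, but the concentrations are not stated here. The number is the fitted AC50, the concentration giving half of the maximal modeled change; a lower value means a more potent effect. Inconclusive means the fitted curve moved in the unintended direction (negative hit-call); active needs a hit-call of at least 0.9, and inactive is below 0.9.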

Values are in nM. Every entry below has the call inconclusive. Only part of the assay is shown, chiefly results filed as inconclusive. An entry listed twice with the same setting is a separate test.

Compound	AC50 (nM)
CCC(=O)OCCc1ccccc1	44470
CC(C)CCCCCCOC(=O)c1ccccc1C(=O)OCCCCCCC(C)C	46057
CCC(C(=O)NC(N)=O)c1ccccc1 (centres undefined)	46082
CCCCCC(C=O)=Cc1ccccc1	46131
COC(=O)C(C)Oc1ccc(Oc2ccc(Cl)cc2Cl)cc1 (centres undefined)	46082
O=c1c(O)c(-c2ccc(O)c(O)c2)oc2cc(O)cc(O)c12	85378
Cc1cccc(C)c1O	46659
NNc1nc(-c2ccc(N)cc2)cs1	22.54
CCCC[O][Al]([O]CCCC)[O]CCCC	392.2
c1ccc2n[nH]nc2c1	401
CN(N=O)C(=O)N[C@@H]1[C@@H](O)[C@H](O)[C@@H](CO)O[C@@H]1O	46083
O=C(O)CC(C(=O)O)C(CC(=O)O)C(=O)O (centres undefined)	46083
COc1ccc([N+](=O)[O-])cc1N	46237
COC(C)(C)CCO	6942
O=S(=O)(O)CCCN1CCOCC1	46082
CC(=O)[C@H]1CC[C@H]2[C@@H]3CC=C4C[C@@H](O)CC[C@]4(C)[C@H]3CC[C@]12C	46036
O=C(Cl)c1ccc(C(=O)Cl)cc1	483
O=C1OC[C@H](Cc2cccc(O)c2)[C@H]1Cc1cccc(O)c1	15437
CCCCCCOC(=O)C(C)CC (centres undefined)	46084
CCN(CCN)c1cccc(C)c1	10.25
Cc1ccccc1CCl	46082
OCCCc1ccccc1	23041
CC(C)Oc1ccccc1O	11139
CCCCNC(=O)NS(=O)(=O)c1ccc(N)cc1	46082
Nc1cccc2ccccc12	46082
CCCCCC[C@@H](O)C/C=C\CCCCCCCC(=O)O	23041
OCCC(F)(F)C(F)(F)C(F)(F)C(F)(F)C(F)(F)C(F)(F)C(F)(F)C(F)(F)F	46082
CC(CCl)OP(=O)(OC(C)CCl)OC(C)CCl (centres undefined)	115.6
Nc1nc(N)c2nc(CNc3ccc(C(=O)N[C@@H](CCC(=O)O)C(=O)O)cc3)cnc2n1	23041
CCCCCOC(=O)c1ccccc1C(=O)OCCCCC	46082
CC1(C)S[C@@H]2[C@H](NC(=O)COc3ccccc3)C(=O)N2[C@H]1C(=O)O	46083
CC(C)c1ccc(C(C)C)cc1	46083
C=CC(=O)OCCC(=O)O	46082
CCC(C(=O)NC(N)=O)c1ccccc1 (centres undefined)	23041
C/C=C(\C)C(=O)OCC/C=C\CC	46083
CN1CCOCC1	83929
CC(=O)OCCOCCOCCOC(C)=O	45603
C=CC(=O)OCCC(=O)O	18556
O=c1ccc2ccccc2o1	46082
Clc1nc(Cl)c(Cl)c(Cl)c1Cl	46082
Cc1oncc1C(=O)Nc1ccc(C(F)(F)F)cc1	10299
CCCCOCCOCCSC#N	48177
CCNc1ccccc1	46767
NC(=O)O	46083
CCC(C)c1nccnc1OC (centres undefined)	2304
CCCCNC(=O)NS(=O)(=O)c1ccc(N)cc1	23041
CN(C)CCC#N	16697
CCC1(c2ccccc2)C(=O)NCNC1=O	23041
CN(N=O)C(=O)N[C@@H]1[C@@H](O)[C@H](O)[C@@H](CO)O[C@@H]1O	45783
Cc1[nH]c(=O)c(C#N)cc1-c1ccncc1	23041
Fc1ccc(Br)cc1	46465
O=C(Nc1ccccc1)c1cc([N+](=O)[O-])ccc1Cl	46082
Cc1ccc(Cl)cc1	46082
CN(C)CCC=C1c2ccccc2CCc2ccccc21	874.7
O=c1ccc2ccccc2o1	46882
CCCCCCCCCCCCCC	19.87
CN1CCOCC1	46082
CC(C)CCCCCOC(=O)CCS	46082
CCCCOCCOCCSC#N	28110
Nc1nc2ncc(CNc3ccc(C(=O)N[C@@H](CCC(=O)O)C(=O)O)cc3)nc2c(=O)[nH]1	23041
Cc1cc(=O)[nH]c(C(C)C)n1	46433
CCOCC(=O)O	46953
CC(=O)Nc1ccc(CC(=O)O)cc1	46082
Nc1ccc(S(=O)(=O)Nc2nccs2)cc1	80857
N[C@@H](Cc1cc(I)c(Oc2cc(I)c(O)c(I)c2)c(I)c1)C(=O)O	23041
NC(=O)NC(N)=O	88052
CCOC(=O)C(C#N)=C(c1ccccc1)c1ccccc1	46082
CCC1(c2ccccc2)C(=O)NCNC1=O	47032
CC(C)(C)C(=O)CCl	46085
CCCCC(CC)COC(=O)c1c(Br)c(Br)c(Br)c(Br)c1C(=O)OCC(CC)CCCC (centres undefined)	33871
C1COCCN1	46083
CCOCCO	46082
CC(C)(Oc1ccc(C2CC2(Cl)Cl)cc1)C(=O)O (centres undefined)	13875
CCNc1ccccc1	46082
CC1CCC2CC1C2(C)C (centres undefined)	44606
C=C(C)C(=O)OCC(CC)CCCC (centres undefined)	46084
CN(C)CCO	23041
CCc1nccnc1C	46082
Cc1ccc(O)c(C)c1	45557
Cc1cc(C2(c3cc(C)c(O)cc3C)OS(=O)(=O)c3ccccc32)c(C)cc1O	86009
CCCCOCCOCCOC(C)=O	82004
CN(C)C=O	46937
CCCCCNCCCCC	47016
CCCSc1ccc2nc(NC(=O)OC)[nH]c2c1	92.83
CN(C)CCC#N	46082
CCOCCO	47161
O=c1ccc2ccccc2o1	11890
C=C(Cl)Cl	48548
CC(C)CCCCCCCOC(=O)c1ccccc1C(=O)OCCCCCCCC(C)C	202.5
CCCCCCCCSCCO	46082
O=C(O)c1ccccc1-n1cc(C(=O)O)c(=O)c2cc(Nc3c(F)cc(F)cc3Cl)c(Cl)cc21	15067
N#Cc1ccc(Cl)cc1	46082
CCCCCOC(=O)c1ccccc1C(=O)OCCCCC	45977
CC1=NN(c2ccc(S(=O)(=O)O)cc2)C(=O)C1	86182
CN(C)CCO	46364
Cc1ccc(Cl)cc1	48221
COC(=O)C1(O)c2ccccc2-c2ccccc21	2347
COC(CC(C)CCCC(C)(C)O)OC (centres undefined)	46084
Clc1nc(Cl)c(Cl)c(Cl)c1Cl	46299
CC1(C)S[C@@H]2[C@H](NC(=O)COc3ccccc3)C(=O)N2[C@H]1C(=O)O	46145
C=CCOC(=O)C(C)(C)OC(=O)c1cc(-n2c(=O)cc(C(F)(F)F)n(C)c2=O)ccc1Cl	45345
CCOCC(=O)O	46085
C=CC(C)(CCC=C(C)C)OC(=O)C(C)C (centres undefined)	80531
Cc1cc(C2(c3cc(C)c(O)cc3C)OS(=O)(=O)c3ccccc32)c(C)cc1O	46083
Cc1ccc(N(SC(F)(Cl)Cl)S(=O)(=O)N(C)C)cc1	46082
CC1CCC2CC1C2(C)C (centres undefined)	46084
CCc1cccc(CC)c1N	46082
Nc1ccc(S(=O)(=O)Nc2nccs2)cc1	42807
Nc1cccc2ccccc12	46313
Nc1ccc(N=Nc2ccccc2)c(N)n1	23041
COc1ccc(C=O)cc1OC	413.1

From PubChem BioAssay record AID2283593 (EPA ToxCast, 2025).